The results in this text go back to the supplement of paper PMC10032668.

Sequences of proteins named here, by UniProt entry; tags and fusion partners are left off.
MPG, P29372, UniProt P29372, whole entry: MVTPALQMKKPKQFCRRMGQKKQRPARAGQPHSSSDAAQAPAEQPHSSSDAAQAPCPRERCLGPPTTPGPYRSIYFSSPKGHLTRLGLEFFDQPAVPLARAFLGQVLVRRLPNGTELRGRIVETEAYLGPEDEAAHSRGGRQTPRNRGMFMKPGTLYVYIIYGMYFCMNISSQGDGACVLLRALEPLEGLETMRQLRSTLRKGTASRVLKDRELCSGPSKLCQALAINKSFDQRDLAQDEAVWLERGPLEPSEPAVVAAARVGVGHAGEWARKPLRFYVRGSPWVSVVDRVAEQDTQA
TF, P02787, UniProt P02787, whole entry: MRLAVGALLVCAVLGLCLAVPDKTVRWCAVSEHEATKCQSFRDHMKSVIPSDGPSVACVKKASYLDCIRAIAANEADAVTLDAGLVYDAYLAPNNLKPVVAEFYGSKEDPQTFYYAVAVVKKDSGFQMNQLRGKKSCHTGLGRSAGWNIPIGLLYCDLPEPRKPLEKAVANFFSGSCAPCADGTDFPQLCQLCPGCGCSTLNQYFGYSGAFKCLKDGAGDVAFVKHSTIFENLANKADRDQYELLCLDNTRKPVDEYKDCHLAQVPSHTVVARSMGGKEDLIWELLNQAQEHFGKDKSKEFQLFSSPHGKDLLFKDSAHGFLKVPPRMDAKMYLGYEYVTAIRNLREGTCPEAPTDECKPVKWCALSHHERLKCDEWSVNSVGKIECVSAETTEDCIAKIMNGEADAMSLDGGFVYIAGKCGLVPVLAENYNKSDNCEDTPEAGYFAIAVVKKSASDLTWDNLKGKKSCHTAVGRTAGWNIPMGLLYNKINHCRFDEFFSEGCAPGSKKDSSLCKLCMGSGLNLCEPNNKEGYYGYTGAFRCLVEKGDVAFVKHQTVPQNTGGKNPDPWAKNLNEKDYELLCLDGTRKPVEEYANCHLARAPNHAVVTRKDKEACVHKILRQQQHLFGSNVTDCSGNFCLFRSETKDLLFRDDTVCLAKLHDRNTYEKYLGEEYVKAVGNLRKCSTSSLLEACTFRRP
TUBB8, Q3ZCM7, UniProt Q3ZCM7, whole entry: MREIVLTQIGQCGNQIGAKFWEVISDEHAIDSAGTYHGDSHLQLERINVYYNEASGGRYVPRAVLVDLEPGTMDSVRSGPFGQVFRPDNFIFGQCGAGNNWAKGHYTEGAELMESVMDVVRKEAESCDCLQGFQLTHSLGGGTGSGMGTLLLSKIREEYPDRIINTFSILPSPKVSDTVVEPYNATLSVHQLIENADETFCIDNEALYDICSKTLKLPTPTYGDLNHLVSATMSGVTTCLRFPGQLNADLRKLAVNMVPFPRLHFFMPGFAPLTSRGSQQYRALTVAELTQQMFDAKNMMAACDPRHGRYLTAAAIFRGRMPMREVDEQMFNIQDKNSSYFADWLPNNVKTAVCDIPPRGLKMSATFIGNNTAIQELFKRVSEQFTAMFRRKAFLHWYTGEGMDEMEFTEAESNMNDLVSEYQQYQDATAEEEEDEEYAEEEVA
CKS2, P33552, UniProt P33552, whole entry: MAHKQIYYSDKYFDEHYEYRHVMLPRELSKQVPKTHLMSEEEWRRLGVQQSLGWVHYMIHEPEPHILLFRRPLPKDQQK
HSPB1, P04792, UniProt P04792, whole entry: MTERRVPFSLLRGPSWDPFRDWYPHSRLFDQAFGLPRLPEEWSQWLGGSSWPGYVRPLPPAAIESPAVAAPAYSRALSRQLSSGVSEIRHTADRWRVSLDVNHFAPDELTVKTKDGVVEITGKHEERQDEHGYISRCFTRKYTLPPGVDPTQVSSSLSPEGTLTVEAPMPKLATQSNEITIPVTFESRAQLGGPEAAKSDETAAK
TRAPPC2L, Q9UL33, UniProt Q9UL33, whole entry: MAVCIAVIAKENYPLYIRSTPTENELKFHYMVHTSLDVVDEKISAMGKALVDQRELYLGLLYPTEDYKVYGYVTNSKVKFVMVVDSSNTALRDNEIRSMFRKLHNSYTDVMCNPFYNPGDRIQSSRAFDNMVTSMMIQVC
UBA5, Q9GZZ9, UniProt Q9GZZ9, whole entry: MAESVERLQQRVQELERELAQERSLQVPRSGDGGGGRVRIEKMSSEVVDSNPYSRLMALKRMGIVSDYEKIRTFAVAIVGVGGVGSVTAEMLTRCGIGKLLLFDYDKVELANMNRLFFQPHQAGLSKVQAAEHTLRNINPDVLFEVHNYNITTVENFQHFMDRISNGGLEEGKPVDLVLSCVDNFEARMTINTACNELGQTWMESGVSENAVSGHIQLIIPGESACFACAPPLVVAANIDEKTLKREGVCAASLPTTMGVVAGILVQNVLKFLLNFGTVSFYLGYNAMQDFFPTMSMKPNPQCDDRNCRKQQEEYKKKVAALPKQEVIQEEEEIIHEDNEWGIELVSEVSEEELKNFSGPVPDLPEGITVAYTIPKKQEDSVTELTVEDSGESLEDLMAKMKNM
TRRAP, Q9Y4A5, UniProt Q9Y4A5, whole entry: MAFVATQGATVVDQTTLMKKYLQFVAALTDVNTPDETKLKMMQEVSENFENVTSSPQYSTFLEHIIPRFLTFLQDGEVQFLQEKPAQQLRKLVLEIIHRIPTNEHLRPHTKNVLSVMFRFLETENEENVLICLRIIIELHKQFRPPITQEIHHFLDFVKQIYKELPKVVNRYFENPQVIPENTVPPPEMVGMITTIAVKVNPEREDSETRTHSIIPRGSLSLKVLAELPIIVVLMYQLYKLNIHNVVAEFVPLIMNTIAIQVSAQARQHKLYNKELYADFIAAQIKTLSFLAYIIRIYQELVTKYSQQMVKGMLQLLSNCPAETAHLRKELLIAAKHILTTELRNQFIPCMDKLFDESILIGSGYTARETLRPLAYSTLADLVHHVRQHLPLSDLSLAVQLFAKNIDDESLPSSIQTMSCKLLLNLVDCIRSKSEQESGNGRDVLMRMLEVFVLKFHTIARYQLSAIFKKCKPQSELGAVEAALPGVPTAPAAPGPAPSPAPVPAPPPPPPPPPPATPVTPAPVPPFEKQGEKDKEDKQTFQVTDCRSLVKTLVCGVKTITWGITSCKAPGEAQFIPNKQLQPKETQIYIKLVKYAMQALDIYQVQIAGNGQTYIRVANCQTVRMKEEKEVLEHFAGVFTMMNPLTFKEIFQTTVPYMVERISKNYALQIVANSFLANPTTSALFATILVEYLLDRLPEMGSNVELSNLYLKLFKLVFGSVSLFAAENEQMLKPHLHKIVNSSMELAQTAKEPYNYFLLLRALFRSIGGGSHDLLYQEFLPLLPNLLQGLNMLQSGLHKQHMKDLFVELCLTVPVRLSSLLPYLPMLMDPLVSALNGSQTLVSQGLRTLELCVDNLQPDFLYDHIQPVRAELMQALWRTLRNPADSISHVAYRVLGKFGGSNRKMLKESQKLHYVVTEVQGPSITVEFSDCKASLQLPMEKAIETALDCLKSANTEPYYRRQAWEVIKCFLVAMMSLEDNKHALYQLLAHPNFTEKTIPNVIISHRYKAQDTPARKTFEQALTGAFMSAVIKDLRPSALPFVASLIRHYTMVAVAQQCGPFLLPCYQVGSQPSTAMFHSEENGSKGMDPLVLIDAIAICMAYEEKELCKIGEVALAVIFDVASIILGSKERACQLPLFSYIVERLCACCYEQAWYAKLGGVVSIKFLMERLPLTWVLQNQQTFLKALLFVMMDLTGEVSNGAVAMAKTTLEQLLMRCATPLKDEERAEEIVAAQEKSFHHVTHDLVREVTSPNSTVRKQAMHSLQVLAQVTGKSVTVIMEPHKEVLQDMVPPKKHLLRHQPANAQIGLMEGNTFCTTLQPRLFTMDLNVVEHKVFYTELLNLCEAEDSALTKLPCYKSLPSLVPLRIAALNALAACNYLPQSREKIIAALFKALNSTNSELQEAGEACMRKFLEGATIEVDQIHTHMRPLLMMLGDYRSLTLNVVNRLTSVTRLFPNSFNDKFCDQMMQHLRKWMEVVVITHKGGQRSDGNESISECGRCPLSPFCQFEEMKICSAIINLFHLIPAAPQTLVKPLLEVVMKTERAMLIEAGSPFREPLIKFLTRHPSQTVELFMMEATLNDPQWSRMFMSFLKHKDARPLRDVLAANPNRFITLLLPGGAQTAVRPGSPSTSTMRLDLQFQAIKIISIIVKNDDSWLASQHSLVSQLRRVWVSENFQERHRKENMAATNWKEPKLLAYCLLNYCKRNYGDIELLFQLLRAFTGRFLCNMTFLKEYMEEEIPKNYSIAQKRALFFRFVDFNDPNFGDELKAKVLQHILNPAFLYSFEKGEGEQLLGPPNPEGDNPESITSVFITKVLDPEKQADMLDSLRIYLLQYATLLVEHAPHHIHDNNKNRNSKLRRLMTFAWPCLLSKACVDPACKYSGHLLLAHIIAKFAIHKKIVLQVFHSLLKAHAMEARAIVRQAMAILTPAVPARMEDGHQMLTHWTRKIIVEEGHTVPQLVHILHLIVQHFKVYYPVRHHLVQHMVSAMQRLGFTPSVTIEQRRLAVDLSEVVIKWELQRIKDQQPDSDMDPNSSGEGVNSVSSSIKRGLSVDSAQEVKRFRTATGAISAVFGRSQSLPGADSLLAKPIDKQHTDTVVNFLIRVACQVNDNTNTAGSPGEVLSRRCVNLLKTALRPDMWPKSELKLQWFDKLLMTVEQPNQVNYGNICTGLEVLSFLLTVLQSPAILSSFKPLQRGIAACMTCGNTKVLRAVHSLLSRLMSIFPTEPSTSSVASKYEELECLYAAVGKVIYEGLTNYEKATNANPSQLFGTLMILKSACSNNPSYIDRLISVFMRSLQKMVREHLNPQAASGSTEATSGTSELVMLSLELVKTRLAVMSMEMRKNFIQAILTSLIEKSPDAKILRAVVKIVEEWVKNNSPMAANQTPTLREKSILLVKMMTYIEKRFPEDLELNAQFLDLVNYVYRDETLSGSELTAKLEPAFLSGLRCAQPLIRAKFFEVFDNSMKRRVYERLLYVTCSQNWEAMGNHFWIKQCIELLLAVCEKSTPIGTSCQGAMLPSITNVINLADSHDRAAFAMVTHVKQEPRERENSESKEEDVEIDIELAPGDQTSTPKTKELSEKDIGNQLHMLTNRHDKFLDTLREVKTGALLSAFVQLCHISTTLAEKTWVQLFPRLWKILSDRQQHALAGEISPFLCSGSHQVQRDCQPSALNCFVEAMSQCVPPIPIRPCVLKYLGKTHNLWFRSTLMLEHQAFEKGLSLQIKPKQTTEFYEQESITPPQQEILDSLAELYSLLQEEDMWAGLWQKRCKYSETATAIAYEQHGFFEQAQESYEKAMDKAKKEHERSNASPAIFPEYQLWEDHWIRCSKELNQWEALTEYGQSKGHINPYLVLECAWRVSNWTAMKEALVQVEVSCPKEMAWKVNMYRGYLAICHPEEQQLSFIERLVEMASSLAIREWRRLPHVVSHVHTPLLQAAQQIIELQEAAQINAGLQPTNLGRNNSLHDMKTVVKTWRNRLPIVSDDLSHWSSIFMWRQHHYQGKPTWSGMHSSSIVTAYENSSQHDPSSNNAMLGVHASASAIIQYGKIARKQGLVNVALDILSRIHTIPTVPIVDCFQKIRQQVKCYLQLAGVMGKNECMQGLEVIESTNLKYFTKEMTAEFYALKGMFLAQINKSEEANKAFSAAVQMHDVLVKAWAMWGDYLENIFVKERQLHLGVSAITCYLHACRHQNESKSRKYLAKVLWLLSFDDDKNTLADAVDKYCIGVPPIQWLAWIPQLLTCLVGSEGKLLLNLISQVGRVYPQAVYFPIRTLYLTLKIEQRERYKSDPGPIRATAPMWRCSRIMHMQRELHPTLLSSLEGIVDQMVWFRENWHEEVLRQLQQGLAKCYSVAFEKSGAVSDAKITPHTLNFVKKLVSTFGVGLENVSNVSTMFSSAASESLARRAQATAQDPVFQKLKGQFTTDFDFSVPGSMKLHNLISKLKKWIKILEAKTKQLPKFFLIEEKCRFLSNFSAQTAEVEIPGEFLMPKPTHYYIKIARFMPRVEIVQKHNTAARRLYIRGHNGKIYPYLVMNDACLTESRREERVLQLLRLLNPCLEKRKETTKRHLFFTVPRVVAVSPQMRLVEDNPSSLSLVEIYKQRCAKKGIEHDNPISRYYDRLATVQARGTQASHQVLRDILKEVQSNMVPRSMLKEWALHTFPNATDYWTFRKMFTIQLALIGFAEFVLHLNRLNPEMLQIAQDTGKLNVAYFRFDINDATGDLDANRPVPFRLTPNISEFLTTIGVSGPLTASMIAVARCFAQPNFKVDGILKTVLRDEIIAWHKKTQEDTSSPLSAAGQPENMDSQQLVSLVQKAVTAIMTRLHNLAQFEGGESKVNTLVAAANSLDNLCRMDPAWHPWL
COX6C, P09669, UniProt P09669, whole entry: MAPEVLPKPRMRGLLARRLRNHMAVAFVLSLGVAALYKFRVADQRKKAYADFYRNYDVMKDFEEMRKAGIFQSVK
RFC4, P35249, UniProt P35249, whole entry: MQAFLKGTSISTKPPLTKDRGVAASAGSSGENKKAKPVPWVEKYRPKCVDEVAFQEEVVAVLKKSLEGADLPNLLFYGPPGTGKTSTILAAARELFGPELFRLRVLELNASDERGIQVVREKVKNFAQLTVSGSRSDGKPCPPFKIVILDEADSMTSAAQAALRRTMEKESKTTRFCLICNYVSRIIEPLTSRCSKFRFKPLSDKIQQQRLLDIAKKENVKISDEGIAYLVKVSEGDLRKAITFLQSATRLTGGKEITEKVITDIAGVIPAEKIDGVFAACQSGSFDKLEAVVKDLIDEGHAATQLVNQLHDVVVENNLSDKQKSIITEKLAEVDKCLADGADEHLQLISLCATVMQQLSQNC

Holding throughout (assay): PRISMA enrichment of interactor (LFQ) in peptide spot vs all other peptide spots (log2 fold change); higher = stronger / more specific binding of the interactor to the peptide
The target of one assay is CHAMP1, Q96JM3. As for the experimental part:
(§1)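 PRISMA: 15-aa overlapping tiles (offset 8 aa) of 60 microproteins, plus SOS1/GLUT1 control peptides, were spot-synthesized on cellulose membranes in triplicate. Membranes were incubated with benzonase-treated HEK293T lysate, and bound proteins were identified by LC-MS/MS with LFQ. Enrichment is the log2 fold change of each protein in one spot versus all other spots. Only interactors passing the significance cutoff are listed.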

The target of a further assay is DLAT, P10515. As for the experimental part: as §1
The next assay has as its target MPST, P25325. On the procedure:
as §1

For a further assay, the target named is USP34, Q70CQ2. On the procedure:
as §1

The target of the next assay is CFAP97, Q9P2B7. As for the experimental part: as §1
In another assay the target is COL4A3BP, Q9Y5P4. On the procedure:
as §1

In a further assay the target is EXOC1, Q9NV70. On the procedure: as §1
The target in the next assay is MPG, P29372. On the procedure: as §1
A further assay deals with MRPL38, Q96DV4. On the procedure: as §1
For a further assay, the target named is NAP1L1, P55209. As for the experimental part: as §1
The target in a further assay is REXO4, Q9GZR2. On the procedure:
as §1

The target of a further assay is SMPD4, Q9NXE4. As for the experimental part:
as §1

A further assay addresses TF, P02787. On the procedure: as §1
For another assay, the target named is TUBB8, Q3ZCM7. On the procedure:
as §1

The target in a further assay is CDCA5, Q96FF9. As for the experimental part:
as §1

A further assay has as its target CGN, Q9P2M7. On the procedure: as §1
Another assay concerns the target CKS2, P33552. On the procedure:
as §1

The next assay has as its target COPB2, P35606. As for the experimental part:
as §1

The target in the next assay is DDX42, Q86XP3. As for the experimental part:
as §1

Another assay deals with DNAJC8, O75937. As for the experimental part: as §1
The next assay addresses EIF1, P41567. On the procedure:
as §1

The target of another assay is EIF4H, Q15056. As for the experimental part: as §1
The target in the next assay is FAM98B, Q52LJ0. On the procedure: as §1
The target in the next assay is GOT2, P00505. As for the experimental part:
as §1

In another assay the target is HOXD13, P35453. On the procedure:
as §1

The next assay concerns the target MACF1. On the procedure: as §1
The target in a further assay is NSFL1C, Q9UNZ2. On the procedure: as §1
The next assay deals with PAFAH1B3, Q15102. As for the experimental part: as §1
The next assay concerns the target QKI, Q96PU8. On the procedure:
as §1

The next assay has as its target RAB8A, P61006. As for the experimental part: as §1
The target of another assay is SACS, Q9NZJ4. On the procedure: as §1
The target of the next assay is SP1, P08047. As for the experimental part: as §1
Another assay has as its target UQCRFS1, P47985. On the procedure: as §1
In the next assay the target is CDCA8, Q53HL2. As for the experimental part:
as §1

For the next assay, the target named is CDKN2A. On the procedure:
as §1

Another assay deals with FUBP3, Q96I24. As for the experimental part: as §1
In the next assay the target is HSPB1, P04792. On the procedure: as §1
A further assay addresses LUC7L2, Q9Y383. As for the experimental part:
as §1

In a further assay the target is RNF213, Q63HN8. On the procedure: as §1
The next assay concerns the target TMEM101, Q96IK0. On the procedure:
as §1

The next assay addresses CEP290, O15078. On the procedure: as §1
In the next assay the target is CLASP2, O75122. On the procedure: as §1
For a further assay, the target named is FLII, Q13045. On the procedure: as §1
The target in the next assay is GPS2, Q13227. On the procedure: as §1
The next assay has as its target KIF20B, Q96Q89. As for the experimental part:
as §1

Another assay addresses MRPL34, Q9BQ48. As for the experimental part:
as §1

The target of a further assay is PLEC, Q15149. On the procedure: as §1
The next assay deals with PPM1G, O15355. As for the experimental part: as §1
A further assay addresses SAFB, Q15424. As for the experimental part:
as §1

For a further assay, the target named is SBNO1, A3KN83. As for the experimental part: as §1
The target in the next assay is SERF2, P84101. As for the experimental part: as §1
For the next assay, the target named is TRAPPC2L, Q9UL33. On the procedure: as §1
The next assay has as its target UBA5, Q9GZZ9. On the procedure:
as §1

The target of a further assay is CDK11A, Q9UQ88. As for the experimental part:
as §1

The next assay has as its target DDX6, P26196. On the procedure:
as §1

Another assay deals with GLRX3, O76003. On the procedure:
as §1

The target of another assay is RGN, Q15493. On the procedure:
as §1

The next assay addresses RPP30, P78346. As for the experimental part: as §1
Another assay has as its target CGGBP1, Q9UFW8. On the procedure: as §1
Another assay concerns the target HMGA1, P17096. On the procedure:
as §1

The target of the next assay is MCM6, Q14566. On the procedure:
as §1

The target of another assay is NDUFA13, Q9P0J0. As for the experimental part:
as §1

A further assay deals with PSMD7, P51665. As for the experimental part:
as §1

The next assay has as its target RAB21, Q9UL25. As for the experimental part: as §1
The next assay addresses SPCS2, Q15005. As for the experimental part: as §1
The next assay deals with CHAF1B, Q13112. On the procedure: as §1
A further assay has as its target CHEK1, O14757. As for the experimental part:
as §1

A further assay has as its target COPZ1, P61923. As for the experimental part:
as §1

The target of the next assay is PRMT3, O60678. On the procedure: as §1
The next assay addresses SPTY2D1, Q68D10. As for the experimental part: as §1
The target in the next assay is SRSF11, Q05519. On the procedure:
as §1

The next assay deals with TIMM8A, O60220. On the procedure: as §1
For another assay, the target named is TRRAP, Q9Y4A5. On the procedure:
as §1

The next assay addresses ZNF668, Q96K58. On the procedure:
as §1

In the next assay the target is COX6C, P09669. On the procedure:
as §1

The target in another assay is EIF2AK2, P19525. As for the experimental part: as §1
The target of another assay is HUWE1, Q7Z6Z7. As for the experimental part:
as §1

The target in another assay is L2HGDH, Q9H9P8. As for the experimental part:
as §1

For another assay, the target named is NUP133, Q8WUM0. On the procedure:
as §1

A further assay addresses PRIM1, P49642. As for the experimental part:
as §1

Another assay addresses RFC4, P35249. On the procedure: as §1

The other results are listed elsewhere or left out. The list holds hits alone, and they repeat only in part.

Consider ALLRQGRQLRYTDRD [MIEF-MP], for which the “PRISMA enrichment of interactor (log2)” value in the assay with CHAMP1, Q96JM3 stood at 5.52; in the assay with DLAT, P10515, 4.86; with MPST, P25325 it was 4.02; with USP34, Q70CQ2, 4.93.

As for RHVLGLGAARRGRQR, the “PRISMA enrichment of interactor (log2)” value amounted to 7.12 with CFAP97, Q9P2B7; 4.51 in the assay with COL4A3BP, Q9Y5P4; 5.09 with EXOC1, Q9NV70; 4.56 with MPG, P29372; 5.18 with MRPL38, Q96DV4; 4.96 in the assay with NAP1L1, P55209. In addition, the “PRISMA enrichment of interactor (log2)” value with REXO4, Q9GZR2 was found to be 6.22; with SMPD4, Q9NXE4, 7.09; with TF, P02787, 6.22; with TUBB8, Q3ZCM7 it was 5.

Regarding GVFIRFLIVLPLDAR, the “PRISMA enrichment of interactor (log2)” value turned out to be 4.3 with CDCA5, Q96FF9; 5.48 with CGN, Q9P2M7; 4.99 with CKS2, P33552; 5.46 with COPB2, P35606; 5.63 in the assay with DDX42, Q86XP3; 4.79 in the assay with DNAJC8, O75937. The “PRISMA enrichment of interactor (log2)” value turned out to be 5.89 with EIF1, P41567; 4.72 in the assay with EIF4H, Q15056; 6.88 with FAM98B, Q52LJ0; 12.7 with GOT2, P00505; 4.06 with HOXD13, P35453; 5.78 with MACF1. Also, the “PRISMA enrichment of interactor (log2)” value was determined as 6.63 in the assay with NSFL1C, Q9UNZ2; 5.58 in the assay with PAFAH1B3, Q15102; 4.46 with QKI, Q96PU8; 4.87 with RAB8A, P61006; 4.09 with SACS, Q9NZJ4; 4.03 in the assay with SP1, P08047. Also, in the assay with UQCRFS1, P47985, the “PRISMA enrichment of interactor (log2)” value was found to be 5.3.

As for AARRGRQRPCPLLAG, the “PRISMA enrichment of interactor (log2)” value in the assay with CDCA8, Q53HL2 was 5.85; with CDKN2A, 4.37; in the assay with FUBP3, Q96I24 it was 5.18; in the assay with HSPB1, P04792, 6.21; with LUC7L2, Q9Y383 it was 4.66; in the assay with RNF213, Q63HN8 it was 5.76. For the same molecule, the “PRISMA enrichment of interactor (log2)” value in the assay with TMEM101, Q96IK0 amounted to 4.2.

In the case of MADVSERTLQLSVLV [MTLN], the “PRISMA enrichment of interactor (log2)” value in the assay with CEP290, O15078 came out at 6.2; in the assay with CLASP2, O75122, 4.46; with FLII, Q13045 it was 5.49; in the assay with GPS2, Q13227, 5.03; in the assay with KIF20B, Q96Q89, 6.88; with MRPL34, Q9BQ48 it was 5.03. Moreover, the “PRISMA enrichment of interactor (log2)” value with PLEC, Q15149 is 6.23; with PPM1G, O15355 it was 5.05; in the assay with SAFB, Q15424, 5.53; in the assay with SBNO1, A3KN83 it was 5.32; with SERF2, P84101, 5.19; with TRAPPC2L, Q9UL33, 4.06. Further, in the assay with UBA5, Q9GZZ9, the “PRISMA enrichment of interactor (log2)” value was determined as 10.3.

For RKNWLLVAGISFIGV [MKKS_2], the “PRISMA enrichment of interactor (log2)” value came out at 5.28 in the assay with CDK11A, Q9UQ88; 7.09 with DDX6, P26196; 6.69 in the assay with GLRX3, O76003; 4.95 with RGN, Q15493; 7.91 with RPP30, P78346.

Take LSRNPSGNGRSLFSI [SNHG8_2]: the “PRISMA enrichment of interactor (log2)” value stood at 4.84 in the assay with CGGBP1, Q9UFW8; 5.15 with HMGA1, P17096; 6.07 in the assay with MCM6, Q14566; 4.64 in the assay with NDUFA13, Q9P0J0; 4.77 in the assay with PSMD7, P51665; 5.99 with RAB21, Q9UL25. In the assay with SPCS2, Q15005, the “PRISMA enrichment of interactor (log2)” value worked out at 7.36.

For the molecule VLPNHRLSFLFTVSG [RP1-206D15.6], the “PRISMA enrichment of interactor (log2)” value stood at 3.93 in the assay with CHAF1B, Q13112; 4.79 in the assay with CHEK1, O14757; 4.49 with COPZ1, P61923; 4.22 in the assay with PRMT3, O60678; 5.36 in the assay with SPTY2D1, Q68D10; 6.69 with SRSF11, Q05519. In addition, the “PRISMA enrichment of interactor (log2)” value stood at 5.6 with TIMM8A, O60220; 5.89 in the assay with TRRAP, Q9Y4A5; 6.13 with ZNF668, Q96K58.

As for MLTLRALQLSLPTKI [ZEB2], the “PRISMA enrichment of interactor (log2)” value with CHEK1, O14757 is 5.56; with COL4A3BP, Q9Y5P4, 4.28; with COX6C, P09669, 6.09; with EIF2AK2, P19525 it was 5.29; with HUWE1, Q7Z6Z7, 4.92; with L2HGDH, Q9H9P8 it was 4.15. Also, the “PRISMA enrichment of interactor (log2)” value is 8.39 with NUP133, Q8WUM0; 4.53 in the assay with PRIM1, P49642; 7.98 with RFC4, P35249; 5.87 in the assay with SMPD4, Q9NXE4.
